Source: PubChem BioAssay AID493014 (National Center for Advancing Translational Sciences (NCATS), 2011)
Some of the results follow. These are further read-outs of the screen, such as a control signal, another cell line or another target. No call is given for them. Most of these compounds were active or inconclusive in the main read-out, so they are no random draw. Words in brackets tell the shape of the fitted curve; partial curves, single points and poor fits give uncertain potencies.

Experiment: qHTS Assay to Find Inhibitors of Chronic Active B-Cell Receptor Signaling
Conditions: ABC-DLBCL IkBa-CBG/CBR reporter, luminescence ratio (green luciferase fused to IkBa over red control in TMD8 lymphoma cells), 4 h
Method in brief: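 TMD8 ABC-DLBCL cells carrying doxycycline-inducible green luciferase fused to IkappaBalpha plus unfused red luciferase were exposed to compounds (up to 46 uM) for 4 hrs at 37C. Activity came from the overlap-corrected green/red luminescence ratio.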

[1] = measured here: CBR red luminescence, cell number
[2] = measured here: IkBa-CBG green luminescence

| SMILES | AC50 [1] | AC50 [2] |
| --- | --- | --- |
| CCN(C(=O)CSc1nncn1-c1ccccc1)c1c(N)n(Cc2ccccc2)c(=O)[nH]c1=O | 32.6 µM [rising, partial curve, poor fit] | – |
| O=c1[nH]cc(COCC(F)CCl)c(=O)[nH]1 (configuration not stated) | 7.94 µM [rising, partial curve, poor fit] | – |
| C=CCn1cc(/C=N/Nc2nc3ccccc3[nH]2)c2ccccc21 | 29.1 µM [falling, single point] | – |
| Cc1nnc(N/N=C\c2ccc(-c3ccccc3[N+](=O)[O-])o2)n1N | 23.1 µM [falling, single point] | – |
| Cc1ccccc1C(=O)Nc1ccccc1Sc1ccccc1 | 20.6 µM [rising, single point] | – |
| Cc1nc(SC2CCOC2=O)c2c(C)c(C)sc2n1 (configuration not stated) | 22.4 µM [rising, partial curve, poor fit] | – |
| CN(C)c1ccc2nc3ccc(=[N+](C)C)cc-3sc2c1 | 7.08 µM [rising, partial curve, poor fit] | – |
| COc1ccccc1NC(=O)CNC(=O)c1ccc(Br)o1 | 11.2 µM [falling, partial curve] | – |
| Cc1c(C(=O)N2CC(C)OC(C)C2)oc2ccccc12 (configuration not stated) | 29.1 µM [rising, single point] | – |
| COc1cc(/C=C/C(=O)N2CCC=CC2=O)cc(OC)c1OC | 8.2 µM [falling, partial curve] | – |
| COc1ccc(/C=C2\SC(=O)N(CCNC(=O)Cn3[nH]c(=O)c4ccccc4c3=O)C2=O)cc1 | 18.4 µM [falling, partial curve] | – |
| CC(Oc1ccc(C(=O)NCCc2ccccc2)cc1)C(=O)O (configuration not stated) | 29.1 µM [falling, single point] | – |
| CC[C@H](C)[C@@H](CN[C@H](C)CNC)NCCC(c1ccccc1)c1ccccc1 | 14.1 µM [falling, single point] | – |
| Cc1cccc(-c2noc(CCC(=O)NCC3CCCO3)n2)c1 (configuration not stated) | 0.116 µM [rising, full curve, poor fit] | – |
| O=C(NCCc1cccc(C(F)(F)F)c1)C1CCC(=O)N(Cc2ccc(Cl)cc2)C1 (configuration not stated) | 25.1 µM [falling, single point] | – |
| CC(C)(C)NC(=O)NC(=O)COC(=O)CNC(=O)c1cc(Cl)cc([N+](=O)[O-])c1 | 35.5 µM [rising, single point] | – |
| CN(CC(=O)Nc1ccc(F)cc1)C(=O)c1ccc(OCc2cn3ccccc3n2)cc1 | 23.1 µM [falling, single point] | – |
| O=C(Nc1ccccc1Cl)OC1CCCCC1 | 0.447 µM [rising, full curve] | – |
| C[C@@H]1CN([C@@H](C)CO)C(=O)c2cc(NC(=O)CCN3CCOCC3)ccc2O[C@@H]1CN(C)C(=O)Nc1ccccc1 | 10.3 µM [rising, partial curve, poor fit] | – |
| CCN(CC)C(=S)SCC(=O)Nc1ccc(F)cc1 | 7.08 µM [falling, partial curve, poor fit] | – |
| CCN(CC(=O)Nc1ccc2c(c1)OCCO2)C(=O)CCOc1ccccc1 | 8.2 µM [falling, partial curve] | – |
| COc1ccc(CCNc2ncnc3c2c(-c2ccccc2)cn3-c2ccc(F)cc2)cc1OC | 2.24 µM [rising, partial curve, poor fit] | – |

| SMILES | AC50 [1] | AC50 [2] |
| --- | --- | --- |
| Cc1cnn(-c2ccc3nnc(-c4ccc(Br)cc4)n3n2)c1 | 0.206 µM [falling, full curve] | – |
| Nc1ccc(S(=O)(=O)Nc2nccc(/C=C/c3ccccc3F)n2)cc1 | 14.1 µM [rising, partial curve, poor fit] | – |
| CC(=O)c1cc2c(cc1NC(=O)CN1CCN(c3cccc(C(F)(F)F)c3)CC1)OCO2 | 7.31 µM [rising, partial curve, poor fit] | – |
| CN(C1CCCCC1)S(=O)(=O)c1ccc(=S)[nH]c1 | 18.4 µM [falling, partial curve] | – |
| COc1cc(OC)cc(C(=O)Nc2ccccc2C(=O)NCc2cccnc2)c1 | 7.94 µM [falling, partial curve] | – |
| CCOC(=O)C(C)/C(C)=N/NC(N)=S (configuration not stated) | 16.4 µM [falling, partial curve] | 16.4 µM [falling, partial curve] |
| Cc1ccc(S(=O)(=O)Nc2ncc(C(F)(F)F)cc2Cl)cc1 | 35.5 µM [falling, single point] | – |
| COCc1cc(C)nc(OCC(=O)N/N=C/c2ccc(O)cc2O)c1C#N | 17.8 µM [falling, single point] | – |
| Nc1c(C(=O)CSc2nncn2-c2ccccc2)c(=O)[nH]c(=O)n1C1CC1 | 20.6 µM [rising, partial curve, poor fit] | – |
| O=C(O)c1ccc(NC(=O)C2C3CCC(O3)C2C(=O)O)cc1 (configuration not stated) | 17.8 µM [rising, partial curve, poor fit] | – |
| O=C1N=c2ccccc2=C1c1sc(Nc2ccc(O)cc2)nc1O | 11.2 µM [falling, partial curve] | – |
| O=C(Nc1ccc2c(c1)ncn2-c1ccccc1)c1ccco1 | 29.1 µM [falling, single point] | – |
| O=C(CCN=C1NS(=O)(=O)c2ccccc21)OCc1nnc(-c2ccccc2)o1 | 32.6 µM [falling, partial curve, poor fit] | – |
| CCCn1c(NCc2ccc3c(c2)OCO3)nc2ccccc21 | 6.51 µM [rising, single point] | – |
| Cc1ccc(-n2ncc3c(N4CCN(CCO)CC4)ncnc32)cc1Cl | 3.98 µM [falling, partial curve, poor fit] | – |
| COc1ccc(C2C(=O)c3ccccc3C2=O)cc1 | 0.731 µM [rising, full curve, poor fit] | – |
| O=C(Nc1cccnc1)c1ccccc1O | 5.17 µM [falling, partial curve] | – |
| COc1ccc(-c2cc(=O)c3cc(OC)c(OC)cc3[nH]2)cc1 | 36.6 µM [rising, single point] | – |
| CC(=O)c1c(C)[nH]c(C(=O)NCC2CCCCC2)c1C | 10 µM [rising, partial curve, poor fit] | – |
| CSc1cccc(NC(=O)c2ccccc2N(C)S(C)(=O)=O)c1 | 0.651 µM [rising, partial curve, poor fit] | – |
| O=C(Nc1nnc(CCc2ccccc2)s1)C1CCCO1 (configuration not stated) | 0.291 µM [rising, single point] | – |
| CCOc1ccc2c(c1)n(CO)c(=S)n2CO | 0.82 µM [rising, full curve, poor fit] | – |

Part of the list above, set out differently.
SMILES | AC50 [1] | AC50 [2]
CC(=O)c1cc2c(cc1NC(=O)CN1CCN(c3cccc(C(F)(F)F)c3)CC1)OCO2 | 7.31 µM [rising, partial curve, poor fit] | –
CN(C1CCCCC1)S(=O)(=O)c1ccc(=S)[nH]c1 | 18.4 µM [falling, partial curve] | –
COc1cc(OC)cc(C(=O)Nc2ccccc2C(=O)NCc2cccnc2)c1 | 7.94 µM [falling, partial curve] | –
CCOC(=O)C(C)/C(C)=N/NC(N)=S (configuration not stated) | 16.4 µM [falling, partial curve] | 16.4 µM [falling, partial curve]
Cc1ccc(S(=O)(=O)Nc2ncc(C(F)(F)F)cc2Cl)cc1 | 35.5 µM [falling, single point] | –
COCc1cc(C)nc(OCC(=O)N/N=C/c2ccc(O)cc2O)c1C#N | 17.8 µM [falling, single point] | –
Nc1c(C(=O)CSc2nncn2-c2ccccc2)c(=O)[nH]c(=O)n1C1CC1 | 20.6 µM [rising, partial curve, poor fit] | –
O=C(O)c1ccc(NC(=O)C2C3CCC(O3)C2C(=O)O)cc1 (configuration not stated) | 17.8 µM [rising, partial curve, poor fit] | –
O=C1N=c2ccccc2=C1c1sc(Nc2ccc(O)cc2)nc1O | 11.2 µM [falling, partial curve] | –
O=C(Nc1ccc2c(c1)ncn2-c1ccccc1)c1ccco1 | 29.1 µM [falling, single point] | –
O=C(CCN=C1NS(=O)(=O)c2ccccc21)OCc1nnc(-c2ccccc2)o1 | 32.6 µM [falling, partial curve, poor fit] | –
CCCn1c(NCc2ccc3c(c2)OCO3)nc2ccccc21 | 6.51 µM [rising, single point] | –
Cc1ccc(-n2ncc3c(N4CCN(CCO)CC4)ncnc32)cc1Cl | 3.98 µM [falling, partial curve, poor fit] | –
COc1ccc(C2C(=O)c3ccccc3C2=O)cc1 | 0.731 µM [rising, full curve, poor fit] | –
O=C(Nc1cccnc1)c1ccccc1O | 5.17 µM [falling, partial curve] | –
COc1ccc(-c2cc(=O)c3cc(OC)c(OC)cc3[nH]2)cc1 | 36.6 µM [rising, single point] | –
CC(=O)c1c(C)[nH]c(C(=O)NCC2CCCCC2)c1C | 10 µM [rising, partial curve, poor fit] | –
CSc1cccc(NC(=O)c2ccccc2N(C)S(C)(=O)=O)c1 | 0.651 µM [rising, partial curve, poor fit] | –

Later entries

| SMILES | AC50 [1] | AC50 [2] |
| --- | --- | --- |
| CCCC(=O)NC(c1ccco1)c1cc(Cl)c2cccnc2c1O (configuration not stated) | 18.4 µM [falling, partial curve, poor fit] | – |
| O=C(CNC(=O)c1cccs1)OCc1ccc(Cl)cc1 | 7.08 µM [rising, partial curve] | – |
| CC(=O)C1=C(C)NC(SCC(=O)c2ccc(Cl)c(Cl)c2)=C(C#N)C1c1ccco1 (configuration not stated) | 7.08 µM [falling, full curve] | – |
| C=CCN1C(=O)[C@]2(c3ccccc31)C1CCCC=C1C(C#N)=C(N)C2(C#N)C#N (some centres not stated) | 35.5 µM [falling, single point] | – |
| CC(C)N(C)CCOC(=O)c1ccccc1Cl | 14.6 µM [rising, partial curve, poor fit] | – |
| Cc1ccnc(NC(=O)c2ccc(Cl)c([N+](=O)[O-])c2)c1 | 20 µM [falling, single point] | – |
| O=C(CCCCCN1C(=O)[C@@H]2Cc3ccccc3CN2C1=O)Nc1ccccc1Cl | 8.91 µM [falling, partial curve] | – |
| CCCC(C)C(=O)Nc1nc(C)c(-c2csc(Nc3cc(Cl)ccc3C)n2)s1 (configuration not stated) | 3.98 µM [falling, full curve] | – |
| Cc1c(Cl)cccc1NC(=S)N1CCCN(Cc2ccccc2F)C1 | 20 µM [falling, single point] | – |
| COc1cc(NC(=O)Cn2cnc(C(=O)Nc3ccc(C)c(C)c3)n2)cc(OC)c1OC | 1.3 µM [rising, full curve, poor fit] | – |
| COc1ccc(NC(=O)C2CCCN2S(=O)(=O)c2cccc3cccnc23)cc1OC (configuration not stated) | 3.16 µM [rising, full curve, poor fit] | 4.47 µM [falling, partial curve] |
| O/N=C1\CCCC\C1=C/c1ccccc1 | 20.6 µM [rising, partial curve, poor fit] | – |
| O=C(CCc1nnc(CCCCc2ccccc2)o1)NCc1cc(F)ccc1F | 1.58 µM [rising, partial curve, poor fit] | – |
| Cc1cccn2c(=O)c3cc(C(=O)NC4CCCC4)n(C)c3nc12 | 0.562 µM [rising, full curve] | – |
| COc1ccc2nc(NC(=O)c3ccccc3O)sc2c1 | 0.562 µM [falling, full curve] | – |
| COc1ccccc1NC(=O)C(=O)NNC(=O)c1ccco1 | 3.16 µM [falling, full curve] | – |
| FC(F)(F)c1cccc(Nc2nc(N3CCOCC3)nc(N3CCOCC3)n2)c1 | 35.5 µM [rising, single point] | – |
| O=S(=O)(NCc1ccccc1)c1ccc(F)cc1Br | 6.31 µM [rising, single point] | – |
| O=[N+]([O-])c1cccc2ccc(/C=C/c3ccc(F)cc3)nc12 | 0.58 µM [rising, full curve] | – |
| Cc1cccc(-c2noc(Cc3ccccc3)n2)c1 | 1.26 µM [rising, partial curve] | – |
| CCOC(=O)c1ccc(NC(=O)C2COc3ccccc3O2)cc1 (configuration not stated) | 17.8 µM [rising, partial curve] | – |
